Results are given in words; binding and its absence hold for the method and conditions named. In cells and extracts the contact can be indirect. Some results given as binding are weak or reduced against the parent protein; the word gives no strength.
Target: Diaph3 (mouse (in brain of Diaph3 transgenic mice)) (UniProt Q9Z207)
Assay: co-IP; 200 ug of brain (Survivin) or cortical (BubR1) lysate of Diaph3 transgenic mice incubated overnight with 5 ug rabbit anti-Diaph3 antibody in lysis buffer (50 mM Tris HCl pH 7.5, 150 mM NaCl, 1 mM EDTA, 1% Triton X-100); protein A agarose beads 2 h at 4 C; washed three times in PBS; western blot; control without antibody

Amino acid sequences for entries named in this document (tags omitted).
UniProt Q9Z207: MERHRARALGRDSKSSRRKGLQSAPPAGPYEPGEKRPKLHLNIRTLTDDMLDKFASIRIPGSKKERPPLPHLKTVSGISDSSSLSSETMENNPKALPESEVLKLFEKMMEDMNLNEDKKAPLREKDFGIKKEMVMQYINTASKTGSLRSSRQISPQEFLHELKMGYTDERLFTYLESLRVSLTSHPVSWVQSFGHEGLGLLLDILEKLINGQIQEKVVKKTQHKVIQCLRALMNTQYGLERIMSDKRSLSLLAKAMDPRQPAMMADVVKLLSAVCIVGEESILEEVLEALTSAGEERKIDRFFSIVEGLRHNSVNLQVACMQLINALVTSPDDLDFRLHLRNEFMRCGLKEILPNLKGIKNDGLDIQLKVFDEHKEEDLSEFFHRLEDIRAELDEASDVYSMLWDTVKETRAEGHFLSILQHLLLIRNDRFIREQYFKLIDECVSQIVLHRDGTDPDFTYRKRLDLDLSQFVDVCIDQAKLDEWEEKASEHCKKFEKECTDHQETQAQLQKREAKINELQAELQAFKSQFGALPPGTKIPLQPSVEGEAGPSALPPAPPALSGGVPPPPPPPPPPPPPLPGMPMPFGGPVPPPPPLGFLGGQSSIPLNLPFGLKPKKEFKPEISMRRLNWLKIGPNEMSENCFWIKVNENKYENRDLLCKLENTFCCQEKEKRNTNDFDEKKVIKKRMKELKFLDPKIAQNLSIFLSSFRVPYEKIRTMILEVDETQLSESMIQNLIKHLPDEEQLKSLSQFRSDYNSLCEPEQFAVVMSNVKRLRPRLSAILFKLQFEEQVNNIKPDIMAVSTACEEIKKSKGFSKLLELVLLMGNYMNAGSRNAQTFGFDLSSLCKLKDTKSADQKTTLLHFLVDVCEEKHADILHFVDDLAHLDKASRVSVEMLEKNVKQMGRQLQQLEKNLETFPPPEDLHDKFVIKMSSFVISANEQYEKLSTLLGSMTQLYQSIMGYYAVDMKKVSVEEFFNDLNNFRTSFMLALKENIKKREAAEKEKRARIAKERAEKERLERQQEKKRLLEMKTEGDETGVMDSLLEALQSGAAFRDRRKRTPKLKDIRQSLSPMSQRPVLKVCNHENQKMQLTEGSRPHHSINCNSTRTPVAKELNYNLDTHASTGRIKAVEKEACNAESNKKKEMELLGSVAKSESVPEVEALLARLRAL
UniProt Q9Z1S0: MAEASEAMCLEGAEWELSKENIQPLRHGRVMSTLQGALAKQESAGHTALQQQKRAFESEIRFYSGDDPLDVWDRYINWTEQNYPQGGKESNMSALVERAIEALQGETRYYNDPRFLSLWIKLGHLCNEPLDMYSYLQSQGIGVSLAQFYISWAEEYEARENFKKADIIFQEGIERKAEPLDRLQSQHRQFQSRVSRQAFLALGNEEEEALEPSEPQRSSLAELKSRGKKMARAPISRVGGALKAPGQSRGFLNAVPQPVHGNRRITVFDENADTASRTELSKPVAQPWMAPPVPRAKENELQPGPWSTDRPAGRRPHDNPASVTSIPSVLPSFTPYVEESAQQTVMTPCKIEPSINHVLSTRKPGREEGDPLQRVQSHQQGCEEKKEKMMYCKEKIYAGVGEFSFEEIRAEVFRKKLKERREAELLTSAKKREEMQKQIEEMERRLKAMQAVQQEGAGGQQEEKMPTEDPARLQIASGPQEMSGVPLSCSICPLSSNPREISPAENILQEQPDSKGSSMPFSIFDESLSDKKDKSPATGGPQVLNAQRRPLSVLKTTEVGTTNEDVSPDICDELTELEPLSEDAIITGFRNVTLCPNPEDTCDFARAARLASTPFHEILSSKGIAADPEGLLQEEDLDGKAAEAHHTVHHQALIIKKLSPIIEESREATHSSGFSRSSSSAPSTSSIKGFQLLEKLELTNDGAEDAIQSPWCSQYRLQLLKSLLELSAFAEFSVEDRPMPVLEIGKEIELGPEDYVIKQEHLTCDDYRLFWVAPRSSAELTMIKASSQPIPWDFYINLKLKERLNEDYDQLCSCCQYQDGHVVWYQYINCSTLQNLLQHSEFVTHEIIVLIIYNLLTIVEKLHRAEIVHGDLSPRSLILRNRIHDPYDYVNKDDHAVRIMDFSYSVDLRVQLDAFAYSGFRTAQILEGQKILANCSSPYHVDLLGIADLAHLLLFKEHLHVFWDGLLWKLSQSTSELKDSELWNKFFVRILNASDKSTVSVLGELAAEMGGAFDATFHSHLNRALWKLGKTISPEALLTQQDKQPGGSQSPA
UniProt O70201: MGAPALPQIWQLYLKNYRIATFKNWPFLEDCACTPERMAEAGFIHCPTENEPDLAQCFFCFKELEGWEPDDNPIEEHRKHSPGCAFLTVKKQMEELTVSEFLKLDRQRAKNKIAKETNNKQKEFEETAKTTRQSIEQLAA

With BubR1 (from UniProt Q9Z1S0 1-1052) the binding was “binds”.
With Survivin (from UniProt O70201 1-140) the binding was “binds”.

From PMC5476800
